The results in this text go back to paper PMC11432204.

Amino acid sequences for entries named in this document (tags omitted).
UniProt Q8BLD9: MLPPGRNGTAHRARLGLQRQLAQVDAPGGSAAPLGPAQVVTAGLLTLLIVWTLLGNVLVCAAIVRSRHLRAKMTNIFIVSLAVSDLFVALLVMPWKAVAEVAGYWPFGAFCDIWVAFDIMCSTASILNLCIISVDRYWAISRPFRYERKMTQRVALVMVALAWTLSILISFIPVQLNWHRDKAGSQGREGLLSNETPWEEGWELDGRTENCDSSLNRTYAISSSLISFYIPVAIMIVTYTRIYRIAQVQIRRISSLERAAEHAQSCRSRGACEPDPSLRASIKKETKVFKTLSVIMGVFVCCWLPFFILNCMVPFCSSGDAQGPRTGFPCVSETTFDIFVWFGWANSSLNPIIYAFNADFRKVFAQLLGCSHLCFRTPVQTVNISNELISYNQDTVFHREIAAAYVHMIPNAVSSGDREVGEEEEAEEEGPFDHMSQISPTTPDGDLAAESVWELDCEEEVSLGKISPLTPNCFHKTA

These are yes or no findings as the source states them, for the method shown. Binding seen in cells or lysates may run through a third protein. Some binding calls cover weakened binding; strength is not graded here.

The target of the test is Dopamine receptor D5 (mouse (endogenous in primary CD4+ T-cells)) (UniProt Q8BLD9). In words: proximity ligation; in situ PLA on fixed, permeabilised colonic sections of Drd5-/- mice with DSS colitis that had received Drd5+/+ CD4+ T-cells (pre-treated with DMSO, TM6C or TM7C, 4 uM); rabbit anti-CCR9 and mouse anti-DRD5, Duolink In Situ Red kit; mice injected with PBS as control.

B1: C-C chemokine receptor 9 (receptor, UniProt Q9WUT7 1-369)
chain: MMPTELTSLIPGMFDDFSYDSTASTDDYMNLNFSSFFCKKNNVRQFASHFLPPLYWLVFIVGTLGNSLVILVYWYCTRVKTMTDMFLLNLAIADLLFLATLPFWAIAAAGQWMFQTFMCKVVNSMYKMNFYSCVLLIMCISVDRYIAIVQAMKAQVWRQKRLLYSKMVCITIWVMAAVLCTPEILYSQVSGESGIATCTMVYPKDKNAKLKSAVLILKVTLGFFLPFMVMAFCYTIIIHTLVQAKKSSKHKALKVTITVLTVFIMSQFPYNSILVVQAVDAYAMFISNCTISTNIDICFQVTQTIAFFHSCLNPVLYVFVGERFRRDLVKTLKNLGCISQAQWVSFTRREGSLKLSSMLLETTSGALSL
Take B1: the binding result is listed as “binds”.
